Reference: PubChem BioAssay AID1259254 (NCATS, 2017)

Aim: 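Gene knock-downs that lead to re-replication, shown by excess G2 DNA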 (primary screen)
System: human HCT116 colorectal cancer cells
Knock-down reagent: single siRNA against human genes
Duration: 3 days
Detection: 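Imaged Hoechst DNA stain sorts each cell into a cycle phase by DNA amount; per plate, G2 fraction set to 0% for non-targeting and 100% for GMNN siRNA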
Reading the numbers: G2 robust z-score and G2 cells, % of GMNN control: higher = more G2 cells, more excess DNA replication
Rule for the call: 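An siRNA counts as active if its G2 robust z-score lies at least 5 MADs above the screen median; here such calls match roughly 38% of GMNN control or more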
Here is one part, drawn at random, of about 59,000 reagents. About 1,550 of all reagents (2.6%) count as active. 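G2 share is only a proxy for re-replication; each gene was hit by three separate siRNAs, and active genes were retested.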 Reagents against one gene are numbered here. Further read-outs or replicates are left out here. No sequences are given here. Not given: the amount of reagent.

Which result is listed for ZNHIT2 (GeneID 741) #1?
G2 robust z-score: 0.0512; G2 cells, % of GMNN control: 3.33; Outcome: inactive

For ZNHIT2 (GeneID 741) #2, how do the results read?
G2 robust z-score: 0.707; G2 cells, % of GMNN control: 7.94; Outcome: inactive

With ZNHIT2 (GeneID 741) #3, what does the deposit list?
G2 robust z-score: 1.62; G2 cells, % of GMNN control: 14.4; Outcome: inactive

For CYP2B6 (GeneID 1555) #1, how do the results read?
G2 robust z-score: -0.0351; G2 cells, % of GMNN control: 2.72; Outcome: inactive

What did the screen give for CYP2B6 (GeneID 1555) #2?
G2 robust z-score: -0.342; G2 cells, % of GMNN control: 0.56; Outcome: inactive

For CYP2B6 (GeneID 1555) #3, what was measured?
G2 robust z-score: 1.15; G2 cells, % of GMNN control: 11.1; Outcome: inactive

How did the screen score TBC1D29P (GeneID 26083) #1?
G2 robust z-score: 1.3; G2 cells, % of GMNN control: 12.1; Outcome: inactive

With TBC1D29P (GeneID 26083) #2, how do the results read?
G2 robust z-score: 0.464; G2 cells, % of GMNN control: 6.23; Outcome: inactive

How did the screen score TBC1D29P (GeneID 26083) #3?
G2 robust z-score: 1.14; G2 cells, % of GMNN control: 11; Outcome: inactive

2 entries from above, reformatted.
CYP2B6 (GeneID 1555) #2
- G2 robust z-score: -0.342
- G2 cells, % of GMNN control: 0.56
- Outcome: inactive

CYP2B6 (GeneID 1555) #3
- G2 robust z-score: 1.15
- G2 cells, % of GMNN control: 11.1
- Outcome: inactive

Further reagents follow.
Which result is listed for PCYT2 (GeneID 5833) #1?
G2 robust z-score: 1.06; G2 cells, % of GMNN control: 10.4; Outcome: inactive

What is on record for PCYT2 (GeneID 5833) #2?
G2 robust z-score: 0.0328; G2 cells, % of GMNN control: 3.2; Outcome: inactive

Which result is listed for PCYT2 (GeneID 5833) #3?
G2 robust z-score: 0.0117; G2 cells, % of GMNN control: 3.05; Outcome: inactive

How did the screen score VHL (GeneID 7428) #1?
G2 robust z-score: -0.315; G2 cells, % of GMNN control: 0.749; Outcome: inactive

For VHL (GeneID 7428) #2, what does the deposit list?
G2 robust z-score: 3.79; G2 cells, % of GMNN control: 29.6; Outcome: inactive

What is on record for VHL (GeneID 7428) #3?
G2 robust z-score: 0.752; G2 cells, % of GMNN control: 8.26; Outcome: inactive

What did the screen give for FLNC (GeneID 2318) #1?
G2 robust z-score: -0.0395; G2 cells, % of GMNN control: 2.69; Outcome: inactive

With FLNC (GeneID 2318) #2, what does the deposit list?
G2 robust z-score: 1.14; G2 cells, % of GMNN control: 11; Outcome: inactive

Which result is listed for FLNC (GeneID 2318) #3?
G2 robust z-score: 2.56; G2 cells, % of GMNN control: 21; Outcome: inactive

What is on record for DNAJC10 (GeneID 54431) #1?
G2 robust z-score: -0.482; G2 cells, % of GMNN control: -0.423; Outcome: inactive

What is on record for DNAJC10 (GeneID 54431) #2?
G2 robust z-score: -1.21; G2 cells, % of GMNN control: -5.56; Outcome: inactive

For DNAJC10 (GeneID 54431) #3, what does the deposit list?
G2 robust z-score: 1.45; G2 cells, % of GMNN control: 13.2; Outcome: inactive

With CLBA1 (GeneID 122616) #1, what was measured?
G2 robust z-score: -0.281; G2 cells, % of GMNN control: 0.987; Outcome: inactive

For CLBA1 (GeneID 122616) #2, how do the results read?
G2 robust z-score: 1.67; G2 cells, % of GMNN control: 14.7; Outcome: inactive

With CLBA1 (GeneID 122616) #3, what does the deposit list?
G2 robust z-score: -0.575; G2 cells, % of GMNN control: -1.08; Outcome: inactive
